Data source: PubChem BioAssay AID1259424 (University of Nebraska Medical Center, 2018)
The whole screen tested about 14,000 reagents; shown is a part drawn at random. 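Higher correlation or smaller distance means closer resemblance to KSR1 loss; control wells, including KSR1 knockdowns, recur on many plates.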 Not given: the time to read-out.

Assay: 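Find knockdowns that reproduce the expression shifts seen after KSR1 loss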 (primary screen)
System: human HCT116 colon cancer cells
Knock-down reagent: siRNA pool against human genes, 50 nM
Read-out: 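Six signature mRNAs by branched-DNA multiplex assay, scaled to two housekeeping genes and non-targeting median, log2; matched to mean KSR1 knockdown profile by Pearson correlation and euclidean distance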
Reading the numbers: mean correlation with KSR1 profile and KSR1 correlation: higher = expression change more like KSR1 knockdown; mean distance from KSR1 profile: higher = expression change less like KSR1 knockdown

Gene	mean correlation with KSR1 profile	mean distance from KSR1 profile	KSR1 correlation, replicate 1	KSR1 correlation, replicate 2	KSR1 correlation, replicate 3
POLR2J (RNA polymerase II subunit J)	-0.0376	1.73	0.374	0.268	-0.575
CLUL1 (clusterin like 1)	0.471	1.59	0.106	0.442	0.258
THBS1 (thrombospondin 1)	0.255	1.61	0.318	0.108	0.136
DENND1C (DENN domain containing 1C)	-0.00569	2.56	0.104	0.147	-0.18
TERF2IP (TERF2 interacting protein)	0.523	1.8	0.417	0.574	0.485
HCN3	-0.09	2.08	-0.0682	-0.215	0.0297
KRT7 (keratin 7)	-0.596	2.88	-0.7	-0.482	-0.364
AGGF1 (angiogenic factor with G-patch and FHA domains 1)	0.304	2.03	0.615	0.386	-0.125
CRTAM (cytotoxic and regulatory T cell molecule)	-0.162	2.31	-0.199	-0.0734	-0.472
EIF4H (eukaryotic translation initiation factor 4H)	-0.185	2.53	-0.153	-0.219	0.0145
HDLBP (high density lipoprotein binding protein)	-0.607	1.4	-0.777	-0.457	-0.409
SLC1A3	-0.732	1.55	-0.603	-0.773	-0.36
WAS (WASP actin nucleation promoting factor)	0.0662	1.53	0.0553	0.183	0.0961
COG5 (component of oligomeric golgi complex 5)	-0.47	2.13	-0.587	-0.423	-0.303
BET1L (Bet1 golgi vesicular membrane trafficking protein like)	-0.377	1.82	-0.535	-0.0738	-0.418
PKNOX1 (PBX/knotted 1 homeobox 1)	0.274	2.07	0.48	0.512	0.181
HAS3 (hyaluronan synthase 3)	-0.437	2.27	-0.258	-0.499	-0.541
RMDN1 (regulator of microtubule dynamics 1)	-0.114	1.79	-0.459	-0.0429	0.0832
JAM3 (junctional adhesion molecule 3)	0.829	1.83	0.597	0.853	0.78
FRAS1 (Fraser extracellular matrix complex subunit 1)	0.25	2.01	0.33	0.182	0.021
LGI1 (leucine rich glioma inactivated 1)	-0.378	2.39	-0.404	-0.64	-0.491
PLCB4 (phospholipase C beta 4)	0.795	1.25	0.743	0.808	0.822
ECRG4 (ECRG4 augurin precursor)	0.557	1.33	0.575	0.433	0.342
POM121L9P (POM121 transmembrane nucleoporin like 9, pseudogene)	-0.092	2.4	-0.327	-0.369	-0.297
BDP1 (BDP1 general transcription factor IIIB subunit)	0.163	4.18	0.398	0.293	-0.455
MYH9 (myosin heavy chain 9)	0.802	1.28	0.935	0.83	0.557
PRIM2 (DNA primase subunit 2)	0.625	1.62	0.601	0.575	0.636
DYRK1A	0.914	0.644	0.942	0.839	0.578
FBXW5 (F-box and WD repeat domain containing 5)	-0.409	5.17	-0.259	-0.345	-0.421
PDE6G (phosphodiesterase 6G)	-0.701	2.25	-0.573	-0.52	-0.875
CPT1A (carnitine palmitoyltransferase 1A)	-0.0487	2.56	-0.156	-0.185	0.221
DRP2 (dystrophin related protein 2)	0.788	1.28	0.829	0.718	0.604
GBP1 (guanylate binding protein 1)	0.439	1.71	0.46	0.393	0.356
ENO3 (enolase 3)	-0.362	2.58	-0.234	-0.393	-0.306

Records above whose gene name starts with D or d:
Gene	mean correlation with KSR1 profile	mean distance from KSR1 profile	KSR1 correlation, replicate 1	KSR1 correlation, replicate 2	KSR1 correlation, replicate 3
DENND1C (DENN domain containing 1C)	-0.00569	2.56	0.104	0.147	-0.18
DYRK1A	0.914	0.644	0.942	0.839	0.578
DRP2 (dystrophin related protein 2)	0.788	1.28	0.829	0.718	0.604
